According to patent US10100081B2, “Trapping reagents for reactive metabolites screening” (Biogen MA Inc., priority 2012, dated 2018):

System: Pooled human liver microsomes (HLM)
Test: In vitro liver microsomal incubations of test drugs with cysteine or cys-chol trapping, adducts analysed by UPLC-LTQ Orbitrap or UPLC-AB SCIEX 5600
Format: in vitro ADME
Conditions: LC-MS/MS, same experiments as for cys-chol (FIGS. 6A, 6B)

SMILES	detectable conjugate with carbamazepine
N[C@@H](CS)C(=O)O [Cysteine, cysteine]	did not produce any detectable conjugate
N[C@@H](CCC(=O)N[C@@H](CS)C(=O)NCC(=O)O)C(=O)O [GSH, glutathione]	did not produce any detectable conjugate
